{"sequences": {"note": "Amino acid sequences for entries named in this document (tags omitted). A change or cut given only in a name is not applied to a line headed by its entry.", "UniProt O15530": "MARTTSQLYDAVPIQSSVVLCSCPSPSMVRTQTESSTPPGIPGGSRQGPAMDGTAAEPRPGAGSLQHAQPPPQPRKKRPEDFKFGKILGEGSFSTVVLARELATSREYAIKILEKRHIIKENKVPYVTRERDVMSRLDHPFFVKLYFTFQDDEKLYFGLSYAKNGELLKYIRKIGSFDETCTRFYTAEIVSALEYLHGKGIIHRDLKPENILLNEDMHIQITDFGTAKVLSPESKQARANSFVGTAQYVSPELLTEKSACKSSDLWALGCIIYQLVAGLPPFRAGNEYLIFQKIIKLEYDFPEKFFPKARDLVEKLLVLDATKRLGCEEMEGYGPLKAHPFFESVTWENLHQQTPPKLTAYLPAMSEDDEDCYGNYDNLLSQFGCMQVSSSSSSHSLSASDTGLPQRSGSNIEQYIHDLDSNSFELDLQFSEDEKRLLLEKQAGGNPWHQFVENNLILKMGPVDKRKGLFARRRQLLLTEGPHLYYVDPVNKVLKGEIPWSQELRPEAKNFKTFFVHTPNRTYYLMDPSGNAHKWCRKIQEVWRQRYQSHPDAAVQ"}, "source": "the supplement of paper PMC12823440", "about": "“Inhibitors supercharge kinase turnover through native proteolytic circuits” (Nature, 2025)", "note": "Counter-ions that a name gives are not always drawn. The list shows a part of the results. The calls rarely recur for the same compound in another form.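 Kinases, fused to nanoluciferase, were expressed in K562 cells; luminescence was measured every 4 h from 2 to 18 h as percent of control (DMSO = 100%, positive control = 0%). A time point is decreased if signal falls significantly (2 sigma). Hits were called by the authors by a rule that is not shown; the count of time points alone does not decide it.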"}
{"molecular_target": "PDPK1 (UniProt O15530)", "experiment": "kinase-Nluc reporter destabilization hit call (1 = scored as downregulated) (binary); higher = compound decreases kinase abundance", "conditions": "K562; 2-18 h"}
{"smiles": "CCS(=O)(=O)c1ncc(Cl)c(C(=O)N(Cc2ccc(Cl)cc2)Cc2ccco2)n1", "note": "(2.5 µM)", "kinase-Nluc reporter destabilization hit call": "inactive: 0"}
{"smiles": "Nc1cc(C(F)(F)F)c(-c2cc(N3CCOCC3)nc(N3CCOCC3)n2)cn1", "note": "[Buparlisib (Hydrochloride)] (2.5 µM)", "kinase-Nluc reporter destabilization hit call": "inactive: 0"}
{"smiles": "COc1cc(Nc2ncc(F)c(Nc3ccc4c(n3)N(COP(=O)(O)O)C(=O)C(C)(C)O4)n2)cc(OC)c1OC", "note": "[Fostamatinib Disodium] (10 µM)", "kinase-Nluc reporter destabilization hit call": "inactive: 0"}
{"smiles": "CC(C)(O)CNc1ncc(-c2ccnc(Nc3ccnc(Cl)c3)n2)c(CC2CC2)n1", "note": "(2.5 µM)", "kinase-Nluc reporter destabilization hit call": "inactive: 0"}
{"smiles": "O=Nc1c(-c2c(O)[nH]c3ccc(I)cc23)[nH]c2ccccc12", "note": "[5-Iodo-indirubin-3'-monoxime] (10 µM)", "kinase-Nluc reporter destabilization hit call": "inactive: 0"}
{"smiles": "Cc1cc(Nc2ncnc3ccc(NC4=NC(C)(C)CO4)cc23)ccc1Oc1ccn2ncnc2c1", "note": "[Tucatinib] (2.5 µM)", "kinase-Nluc reporter destabilization hit call": "inactive: 0"}
{"smiles": "CCS(=O)(=O)Nc1ccc2[nH]c(O)c(C(=Nc3ccc(CN4CCCCC4)cc3)c3ccccc3)c2c1", "note": "[Hesperadin] (2.5 µM)", "kinase-Nluc reporter destabilization hit call": "inactive: 0"}
{"smiles": "COc1cc2c(cc1OC)CN(S(=O)(=O)c1ccc(OC)c(N3CCN(C(=O)c4ccc(F)cc4C(F)(F)F)CC3)c1)CC2", "note": "(10 µM)", "kinase-Nluc reporter destabilization hit call": "inactive: 0"}
{"smiles": "O=C([O-])c1cc2ccccc2c(Cc2c(O)c(C(=O)[O-])cc3ccccc23)c1O.[Na+].[Na+]", "note": "[Pamoic acid (disodium)] (10 µM)", "kinase-Nluc reporter destabilization hit call": "inactive: 0"}
{"smiles": "Cn1cc(-c2ccc3nnc(Sc4ccc5ncccc5c4)n3n2)cn1", "note": "(10 µM)", "kinase-Nluc reporter destabilization hit call": "inactive: 0"}
